The list does not hold the whole screen: it is rich in T/C values a quarter to a half above the control, in often repeated tests (any T/C) and in doses without a T/C. Further doses and runs are listed elsewhere. T/C: endpoint of the treated group in % of that of the vehicle group. Some doses have a count of surviving animals in place of a T/C: the source files T/C as zero there, which appears to mark a toxic dose or a test without result, not a measured value. Some doses without a T/C left all or most animals alive at the check, yet need not have been tolerated: survival well below the control is almost never listed, so the zero probably covers shortened survival too. Survivors were counted at the toxicity check, usually on the fifth day, unless a day is given; later deaths do not show. Schedules are NCI's codes, read here as Q, the interval in days (D) or hours (H), X, the number of doses. Some entries were tested several times; the results are listed from low to high. Some schedules carry Z or #; the key to these is not given. Where survival is the endpoint, this PubChem deposit counts one and a half times the control or more as active, and values a quarter to a half above the control carry no call in these data; other NCI protocols may use other cut-offs.
Tested on: L1210 leukemia ip in BDF1 mice, survival T/C
Assay: NCI In Vivo Anticancer Drug Screen. Data for tumor model L1210 Leukemia (intraperitoneal) in B6D2F1 (BDF1) mice
Settings: T/C endpoint: mean survival time, higher T/C = longer survival
[1] = dose: 300.0 mg/kg/injection, schedule: Q01DX001 (ip), vehicle: saline
[2] = dose: 400.0 mg/kg/injection, schedule: Q01DX009 (ip), vehicle: saline
[3] = dose: 200.0 mg/kg/injection, schedule: Q04DX003 (ip), vehicle: saline with Tween-80
[4] = dose: 200.0 mg/kg/injection, schedule: Q01DX009 (ip), vehicle: saline with Tween-80
[5] = dose: 100.0 mg/kg/injection, schedule: Q01DX009 (ip), vehicle: other
[6] = dose: 200.0 mg/kg/injection, schedule: Q01DX009 (ip), vehicle: other
[7] = dose: 400.0 mg/kg/injection, schedule: Q01DX009 (ip), vehicle: other
[8] = dose: 200.0 mg/kg/injection, schedule: Q04DX002 (ip), vehicle: Klucel (hydroxypropylcellulose) (HPC)
[9] = dose: 400.0 mg/kg/injection, schedule: Q04DX002 (ip), vehicle: Klucel (hydroxypropylcellulose) (HPC)
[10] = dose: 400.0 mg/kg/injection, schedule: Q01DX001 (ip), vehicle: saline
[11] = dose: 200.0 mg/kg/injection, schedule: Q04DX003 (ip), vehicle: saline

SMILES: COc1c2c(c(OC)c3ccccc13)C(=O)C1=C(CC=CC1)C2=O
- survivor count (dose: 400.0 mg/kg/injection, schedule: Q01DX005 (ip), vehicle: water): 4 of 4

SMILES: O=[N+]([O-])c1ccc(Oc2ccc(S(=O)(=O)O)cc2)cc1
- survivor count (dose: 100.0 mg/kg/injection, schedule: Q04DX002 (ip), vehicle: saline with Tween-80): 3 of 3
- survivor count (dose: 200.0 mg/kg/injection, schedule: Q04DX002 (ip), vehicle: saline with Tween-80): 3 of 3
- survivor count (dose: 400.0 mg/kg/injection, schedule: Q04DX002 (ip), vehicle: saline with Tween-80): 3 of 3

SMILES: CN(c1ccccc1)P(=O)(N1CC1)N1CC1
- T/C (dose: 10.0 mg/kg/injection, schedule: Q01DX009 (ip), vehicle: carboxymethylcellulose (CMC)): 130 % of control
- T/C (dose: 22.0 mg/kg/injection, schedule: Q01DX001 (ip), vehicle: carboxymethylcellulose (CMC)): 139 % of control
- T/C (dose: 25.0 mg/kg/injection, schedule: Q01DX001 (ip), vehicle: carboxymethylcellulose (CMC)): 142 % of control
- T/C (dose: 33.0 mg/kg/injection, schedule: Q01DX001 (ip), vehicle: carboxymethylcellulose (CMC)): 134 % of control
- T/C (dose: 50.0 mg/kg/injection, schedule: Q01DX001 (ip), vehicle: carboxymethylcellulose (CMC), evaluated on day 30): 148 % of control
- T/C (dose: 50.0 mg/kg/injection, schedule: Q01DX001 (ip), vehicle: carboxymethylcellulose (CMC), run until all animals had died): 149 % of control
- survivor count (dose: 75.0 mg/kg/injection, schedule: Q01DX001 (ip), vehicle: carboxymethylcellulose (CMC)): 4 of 6
- survivor count (dose: 100.0 mg/kg/injection, schedule: Q01DX001 (ip), vehicle: carboxymethylcellulose (CMC)): 2 of 6
- survivor count (dose: 200.0 mg/kg/injection, schedule: Q01DX001 (ip), vehicle: carboxymethylcellulose (CMC)): 4 of 6
- survivor count (dose: 400.0 mg/kg/injection, schedule: Q01DX001 (ip), vehicle: carboxymethylcellulose (CMC)): 4 of 6

SMILES: CC(CC(=O)O)[Se][Se]C(C)CC(=O)O (centres undefined)
- survivor count (dose: 400.0 mg/kg/injection, schedule: Q01DX001 (ip), vehicle: Klucel (hydroxypropylcellulose) (HPC)): 0 of 5
- survivor count (dose: 600.0 mg/kg/injection, schedule: Q01DX001 (ip), vehicle: Klucel (hydroxypropylcellulose) (HPC)): 0 of 5

SMILES: CC(C)C(NC(=O)OCc1ccccc1)C(=O)O (centres undefined)
- survivor count (dose: 150.0 mg/kg/injection, schedule: Q04DX003 (ip), vehicle: saline): 5 of 6
- survivor count [1]: 0 of 6

SMILES: O=C1c2cccc3cccc(c23)C(=O)N1CCN1C(=O)c2cccc3cccc(c23)C1=O
- survivor count (dose: 100.0 mg/kg/injection, schedule: Q01DX009 (ip), vehicle: Klucel (hydroxypropylcellulose) (HPC)): 6 of 6
- survivor count (dose: 200.0 mg/kg/injection, schedule: Q01DX009 (ip), vehicle: Klucel (hydroxypropylcellulose) (HPC)): 4 of 6
- survivor count (dose: 400.0 mg/kg/injection, schedule: Q01DX009 (ip), vehicle: Klucel (hydroxypropylcellulose) (HPC)): 0 of 6

SMILES: Cc1ccc2[nH]c(C)c(C3=CC(=O)c4ccccc4C3=O)c2c1
- survivor count (dose: 400.0 mg/kg/injection, schedule: Q01DX001 (ip), vehicle: other): 0 of 4

SMILES: OCC(O)C1CCCCN1 (centres undefined)
- survivor count [2]: 2 of 6

SMILES: CCc1ccc(C(=O)O)oc1=O
- survivor count [1]: 3 of 6

SMILES: NC(=NCc1ccccc1)c1ccccc1
- survivor count (dose: 100.0 mg/kg/injection, schedule: Q04DX003 (ip), vehicle: saline with Tween-80): 1 of 3
- survivor count [3]: 0 of 3
- survivor count (dose: 400.0 mg/kg/injection, schedule: Q04DX003 (ip), vehicle: saline with Tween-80): 0 of 3

SMILES: C1=CC2(C=C1)OC21CCC2(C=CC3(C2)OC3C2CCCCC2)CC1 (centres undefined)
- survivor count [4]: 3 of 3

SMILES: CC1OC(=O)C(C)(Br)OC1=O (centres undefined)
- survivor count (dose: 400.0 mg/kg/injection, schedule: Q01DX001 (ip), vehicle: acetone): 2 of 6

SMILES: CCC(CO)N=Cc1ccccc1O.CCC(CO)N=Cc1ccccc1O.[Ni] (centres undefined)
- survivor count (dose: 150.0 mg/kg/injection, schedule: Q01DX001 (ip), vehicle: other): 3 of 6
- survivor count (dose: 300.0 mg/kg/injection, schedule: Q01DX001 (ip), vehicle: other): 0 of 6

SMILES: Cc1c2ccc3ccccc3c2c(C)[n+]2ccccc12
- survivor count (dose: 16.0 mg/kg/injection, schedule: Q01DX Z (ip), vehicle: carboxymethylcellulose (CMC)): 1 of 6

SMILES: CCOC(=O)c1ccc(NC(=S)NC(=O)c2cccc3ccccc23)cc1
- T/C [5]: 90, 93, 95 % of control
- survivor count [5]: 3 of 3
- T/C [6]: 86 % of control
- survivor count [6]: 3 of 3 and 6 of 6
- T/C [7]: 91, 93, 95 % of control
- survivor count [7]: 6 of 6

SMILES: CN1C2CCC1CC(OC1c3ccccc3CCc3ccccc31)C2 (centres undefined)
- survivor count (dose: 100.0 mg/kg/injection, schedule: Q01DX009 (ip), vehicle: saline): 0 of 6

SMILES: CCCCN=Cc1ccccc1O.CCCCN=Cc1ccccc1O.[Cu]
- survivor count (dose: 12.5 mg/kg/injection, schedule: Q01DX009 (ip), vehicle: Klucel (hydroxypropylcellulose) (HPC)): 3 of 3
- survivor count (dose: 50.0 mg/kg/injection, schedule: Q04DX002 (ip), vehicle: Klucel (hydroxypropylcellulose) (HPC)): 1 of 3
- survivor count [8]: 0 of 3
- survivor count [9]: 0 of 3

SMILES: CCc1ccc(/C=C/c2ccc(O)c3ccccc23)[n+](C)c1
- survivor count [1]: 0 of 6

SMILES: CNNc1cc(CO)cnc1SC
- survivor count [10]: 0 of 6

SMILES: Cc1ccc(S(=O)(=O)N(CCCc2c(C)nc(N)nc2Cl)c2ccccc2)cc1
- survivor count (dose: 200.0 mg/kg/injection, schedule: Q01DX001 (ip), vehicle: Klucel (hydroxypropylcellulose) (HPC)): 3 of 3

SMILES: Nc1c(C(F)(F)F)[nH]c(Cl)nc1=S
- survivor count (dose: 44.0 mg/kg/injection, schedule: Q01DX Z (ip), vehicle: methylcellulose (MC)): 6 of 6
- survivor count (dose: 100.0 mg/kg/injection, schedule: Q01DX Z (ip), vehicle: methylcellulose (MC)): 5 of 6

SMILES: CC(C)=CCCC(C)CCO (centres undefined)
- survivor count [10]: 0 of 4

SMILES: CN1CCC2(CC1)C(=O)N(Nc1ccccc1)C(=O)C2c1ccccc1 (centres undefined)
- survivor count [9]: 0 of 3

SMILES: Clc1ccc(CSc2ncc(Br)c(N3CC3)n2)c(Cl)c1
- survivor count (dose: 59.0 mg/kg/injection, schedule: Q01DX Z (ip), vehicle: methylcellulose (MC)): 5 of 6

SMILES: NCC1CC2CCC1C2 (centres undefined)
- survivor count [2]: 6 of 6

SMILES: CC[N+](C)(CC)CCN1C(=O)c2ccccc2S1(=O)=O
- survivor count (dose: 100.0 mg/kg/injection, schedule: Q01DX Z (ip), vehicle: saline): 1 of 6

SMILES: C[N+](C)(C)CC(O)CCl (centres undefined)
- survivor count [10]: 1 of 6

SMILES: Cc1c2ncnc-2ncn1O
- survivor count (dose: 100.0 mg/kg/injection, schedule: Q04DX003 (ip), vehicle: saline): 2 of 3
- survivor count [11]: 2 of 3
- survivor count (dose: 400.0 mg/kg/injection, schedule: Q04DX003 (ip), vehicle: saline): 1 of 3

SMILES: N#CC(Oc1ccccc1)c1ccccc1 (centres undefined)
- T/C [3]: 132 % of control

SMILES: CC(=O)NC1=C(Oc2ccc(C)cc2)C(=O)c2ccccc2C1=O
- survivor count [1]: 0 of 6

SMILES: Cc1cc(C)c2c(c1)C(=O)C(=O)c1cc(C)cc(C)c1-2
- T/C [8]: 132 % of control

SMILES: CCOC(=O)CCC(NC(=O)OCc1ccccc1)C(=O)O (centres undefined)
- survivor count (dose: 400.0 mg/kg/injection, schedule: Q04DX003 (ip), vehicle: Klucel (hydroxypropylcellulose) (HPC)): 2 of 6

SMILES: CN(C)CCN1c2ccccc2Sc2ccccc21
- survivor count [11]: 4 of 4

SMILES: ClCCN(CCCl)c1cc(OCc2ccccc2)cc(OCc2ccccc2)c1
- survivor count (dose: 25.0 mg/kg/injection, schedule: Q01DX009 (ip), vehicle: water): 5 of 6
- survivor count (dose: 50.0 mg/kg/injection, schedule: Q01DX009 (ip), vehicle: water): 6 of 6
- survivor count (dose: 100.0 mg/kg/injection, schedule: Q01DX009 (ip), vehicle: water): 5 of 6
- survivor count (dose: 200.0 mg/kg/injection, schedule: Q01DX009 (ip), vehicle: water): 6 of 6
- survivor count (dose: 400.0 mg/kg/injection, schedule: Q01DX009 (ip), vehicle: water): 6 of 6

SMILES: CCN(CC)c1ccc(NC(=O)Nc2ccccc2OC)cc1
- survivor count [4]: 6 of 6

SMILES: COC(=O)c1ccc2ccccc2n1
- survivor count [1]: 3 of 6

Reference: PubChem BioAssay AID248 (DTP/NCI, 2004)
